According to article doi:10.1101/2023.03.29.534689:
These are yes or no findings as the source states them, for the method shown.

Target: T1, DCLK1.2 (human Doublecortin Like Kinase 1, isoform 2), purified recombinant protein (human), O15075
T1 chain: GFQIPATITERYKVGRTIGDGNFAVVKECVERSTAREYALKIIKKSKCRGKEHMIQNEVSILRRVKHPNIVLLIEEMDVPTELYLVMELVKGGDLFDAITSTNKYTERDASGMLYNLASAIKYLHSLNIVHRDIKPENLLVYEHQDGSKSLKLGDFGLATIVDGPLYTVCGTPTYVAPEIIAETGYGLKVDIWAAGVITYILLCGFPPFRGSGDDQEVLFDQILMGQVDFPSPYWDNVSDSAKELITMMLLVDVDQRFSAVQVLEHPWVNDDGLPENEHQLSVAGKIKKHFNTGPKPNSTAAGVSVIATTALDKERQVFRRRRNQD
Assay: SEC; analytical SEC on Superdex 200 Increase 10/300 GL, 1 mg of each DCLK1 protein; standards BSA, carbonic anhydrase, alcohol dehydrogenase; fractions checked by SDS-PAGE; both purified
Details: remark: other sources report otherwise

B1: DCLK1.2 (human Doublecortin Like Kinase 1, isoform 2), purified recombinant protein, O15075-1 379-704 (domain or fragment)
chain: T1 chain
  binding: no binding (tested: 1 mg loaded)
